# At least one read-out could not be matched to a standard name with certainty. {3LON} = triple hydrocarbon-chain lipid moiety added by triple chain phosphoramidite 4
# Assay: Solubility of LONs in water
# Assay type: physicochemical
# Conditions: crude after deprotection, 1 mL milliQ water
# Experimental: At this point, the crude ^3LON-T15 and ^3LON-A15 behave quite differently. […] The LON eluted after ca. 42 min under these conditions. Fractions containing the LON were pooled and evaporated to dryness. The LON was dissolved in water and dried again two times to remove all residual traces of buffer. Yield of final ^3LON-T15 was excellent (40%).
# As true surfactants, LONs can self assemble in aqueous media. […] The latter could be HPLC-purified and characterized by MS. […] Consequently, dynamic light scattering, transmission electron microscopy and SEM experiments were carried out with the solutions of one purified LON only. Aqueous samples containing LONs were studied under different conditions including pure water and aqueous suspensions of varying ionic strength and temperature (25-45° C.). All the LONs investigated, namely ^3LON-T15, yielded small spherical objects ranging from approximately 8 to 20 nm in diameter as characterized by DLS, transmission and scanning electronic microscopies (TEM and SEM). […] The micellar architecture of these assemblies can be explained based upon the molecular dimensions of 15 nucleobase-long LONs. Indeed, such molecules are flexible, with cone shape structure and dimensions compatible with the self-aggregation into spherical micelles.
substance,measurement,value
^3LON-T15: Triple chain polyT 15mer; dT15 (SEQ ID NO: 33) coupled at its 5′ end with triple chain phosphoramidite 4,solubilization of the crude LON in water,readily solubilized
"^3LON-A15: Triple chain polyA 15mer; dA15 (SEQ ID NO: 32) coupled at its 5′ end with triple chain phosphoramidite 4 (DNA AAAAAAAAAAAAAAA; DNA, 5' {3LON}, backbone not given here)",solubilization of the crude LON in water,heavy precipitate
